PubChem BioAssay AID1671195 | Yale University – 2021

Purpose: 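Knockdowns that increase or decrease uptake of fluorescent LDL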 (primary screen)
Cells: human Huh7 hepatoma cells
Reagent: siRNA pool against human genes, 18 nM
Duration: about 2 to 2.5 days of knockdown, then 8 h LDL uptake
Conditions: DiI-labelled LDL at 30 µg/ml for 8 h, in lipoprotein-deficient serum medium
Read-out: 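Fluorescent LDL signal imaged in cells, scaled to the plate median, robust z-score for each replicate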
Scale: robust z-score: higher = more LDL uptake after knockdown
Hit rule: 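a gene counts as active if at least two replicate z-scores exceed ±2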
The whole screen tested about 22,000 reagents; this is a random part of them. In the full data, about 1,510 (6.9%) got an active call. 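Active includes knockdowns raising or lowering LDL uptake; positive z-scores mean more uptake, negative mean less.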 The numbers tell different reagents against one gene apart. No sequences are given here.

target gene	reagent	robust z-score, replicate 1	robust z-score, replicate 2	robust z-score, replicate 3	call
PICALM (GeneID 8301)	1	0.747	-0.727	0.328	inactive
MGAM (GeneID 8972)	1	0.601	1.42	1.52	inactive
SLC45A2 (GeneID 51151)	1	0.191	-0.519	1.27	inactive
HMX3 (GeneID 340784)	1	-0.551	-0.129	0.0895	inactive
GK2 (GeneID 2712)	1	-2.01	-1.77	-1.79	inactive
ERLIN1 (GeneID 10613)	1	0.872	-0.0635	1.95	inactive
LMAN1 (GeneID 3998)	1	0.117	-0.0307	0.499	inactive
KLRC3 (GeneID 3823)	1	-0.845	-1.25	-0.797	inactive
PDLIM1 (GeneID 9124)	1	0.749	1.13	-0.0382	inactive
WDR54 (GeneID 84058)	1	-0.833	-1.21	-0.466	inactive
LOC441742 (retired record) (GeneID 441742)	1	-0.344	-0.462	-0.67	inactive
FLRT2 (GeneID 23768)	1	-0.426	-2.18	-1.54	inactive
IMPDH1P1 (GeneID 340499)	1	-0.301	-0.448	-0.719	inactive
KCNB1 (GeneID 3745)	1	-0.019	0.149	-0.163	inactive
ALKBH6 (GeneID 84964)	1	-0.829	-1.19	-0.749	inactive
VMAC (GeneID 400673)	1	0.8	0.262	0.847	inactive
ARHGAP27 (GeneID 201176)	1	-1.8	-2.64	-1.66	inactive
ARHGAP27 (GeneID 201176)	2	-1.83	-1.88	-0.712	inactive
BAHCC1 (GeneID 57597)	1	-0.979	0.538	-0.283	inactive
IFI35 (GeneID 3430)	1	-0.617	0.482	-0.878	inactive
MED19 (GeneID 219541)	1	-0.998	-1.38	-1.08	inactive
PIK3R1 (GeneID 5295)	1	-1.48	-2.08	-1.68	inactive
SUSD2 (GeneID 56241)	1	-0.843	0.286	0.229	inactive
LOC440010 (retired record) (GeneID 440010)	1	1.34	1.29	1.11	inactive
SLC25A15 (GeneID 10166)	1	-0.623	-1.39	-0.871	inactive
TIE1 (GeneID 7075)	1	-0.0811	-0.556	-0.672	inactive
COG4 (GeneID 25839)	1	0.956	0.335	1.35	inactive
LOC100133284 (GeneID 100133284)	1	-0.973	-0.999	-0.91	inactive
